Measurements: patent US20170314036A1 (AGRESEARCH, published 2017)

T1: BiFC nYFP-NINJA (Arabidopsis NINJA with N-terminal Venus aa 1-173; pDESTnYFP-NINJA) (Arabidopsis)
T1 construct: Transiently expressed in Nicotiana benthamiana leaves
T1 chain: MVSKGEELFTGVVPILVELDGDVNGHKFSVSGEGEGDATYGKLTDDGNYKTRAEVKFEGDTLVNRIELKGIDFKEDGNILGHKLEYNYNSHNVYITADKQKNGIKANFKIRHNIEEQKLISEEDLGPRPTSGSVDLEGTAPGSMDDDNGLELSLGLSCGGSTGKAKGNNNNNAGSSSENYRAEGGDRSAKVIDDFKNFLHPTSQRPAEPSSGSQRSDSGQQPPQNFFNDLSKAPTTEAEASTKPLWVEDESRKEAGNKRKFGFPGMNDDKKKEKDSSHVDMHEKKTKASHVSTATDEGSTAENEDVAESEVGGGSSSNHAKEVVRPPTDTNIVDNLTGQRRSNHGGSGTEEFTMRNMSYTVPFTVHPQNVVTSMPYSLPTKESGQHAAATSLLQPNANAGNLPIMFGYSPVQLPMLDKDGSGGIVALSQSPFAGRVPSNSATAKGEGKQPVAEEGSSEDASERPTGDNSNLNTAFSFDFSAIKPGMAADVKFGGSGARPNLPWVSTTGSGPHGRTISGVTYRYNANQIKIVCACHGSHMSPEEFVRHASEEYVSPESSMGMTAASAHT

T2: BiFC nYFP-BZR1 (Arabidopsis BZR1 with N-terminal Venus aa 1-173; pDESTnYFP-BZR1) (Arabidopsis)
T2 construct: Transiently expressed in Nicotiana benthamiana leaves
T2 chain: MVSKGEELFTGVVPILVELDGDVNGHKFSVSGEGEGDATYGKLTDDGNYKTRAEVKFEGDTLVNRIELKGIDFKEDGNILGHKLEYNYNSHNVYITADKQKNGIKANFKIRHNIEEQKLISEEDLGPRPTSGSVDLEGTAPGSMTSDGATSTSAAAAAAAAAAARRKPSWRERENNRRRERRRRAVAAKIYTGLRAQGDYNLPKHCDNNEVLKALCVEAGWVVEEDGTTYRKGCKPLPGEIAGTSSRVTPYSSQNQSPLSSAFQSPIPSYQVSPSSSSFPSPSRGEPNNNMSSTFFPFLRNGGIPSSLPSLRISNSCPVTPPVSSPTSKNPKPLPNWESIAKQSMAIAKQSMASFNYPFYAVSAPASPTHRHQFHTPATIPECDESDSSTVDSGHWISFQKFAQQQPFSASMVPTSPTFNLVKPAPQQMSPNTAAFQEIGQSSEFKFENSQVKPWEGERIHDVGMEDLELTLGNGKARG

B1: BiFC cYFP-PPD1 (Arabidopsis PPD1 with N-terminal Venus aa 156-239; pDESTcYFP-PPD1) (other)
chain: MDKQKNGIKANFKIRHNIEDGGVQLADHYQQNTPIGDGPVLLPDNHYLSYQSALSKDPNEKRDHMVLLEFVTAAGITLGMDELYKYPYDVPDYAGPRPTSGSVDLEGTAPGSMDVGVSPAKSILAKPLKLLTEEDISQLTREDCRKFLKDKGMRRPSWNKSQAIQQVLSLKALYEPGDDSGAGIFRKILVSQPVNPPRVTTTLIEPSNELEACGRVSYPEDNGACHRMDSPRSAEFSGGSGHFVSEKDGHKTTISPRSPAETSELVGQMTIFYSGKVNVYDGIPPEKARSIMHFAANPIDLPENGIFASSRMISKLISKEKMMELPQKGLEKANSSRDSGMEGQANRKVSLQRYREKRKDRKFSKAKKCPGVASSSLEMFLNCQPRMKAAYSQNLGCTGSPLHSQSPESQTKSPNLSVDLNSEGI
notes: Transiently expressed in Nicotiana benthamiana leaves
B2: BiFC cYFP-PPD1-tify (PPD1Δtify, internal deletion of aa 154-186 of PPD1, with N-terminal Venus aa 156-239; pDESTcYFP-PPD1Δtify) (other)
chain: MDKQKNGIKANFKIRHNIEDGGVQLADHYQQNTPIGDGPVLLPDNHYLSYQSALSKDPNEKRDHMVLLEFVTAAGITLGMDELYKYPYDVPDYAGPRPTSGSVDLEGTAPGSMDVGVSPAKSILAKPLKLLTEEDISQLTREDCRKFLKDKGMRRPSWNKSQAIQQVLSLKALYEPGDDSGAGIFRKILVSQPVNPPRVTTTLIEPSNELEACGRVSYPEDNGACHRMDSPRSAEFSGGSGHFVSEKDGHKTTISPRSPAETSELIMHFAANPIDLPENGIFASSRMISKLISKEKMMELPQKGLEKANSSRDSGMEGQANRKVSLQRYREKRKDRKFSKAKKCPGVASSSLEMFLNCQPRMKAAYSQNLGCTGSPLHSQSPESQTKSPNLSVDLNSEGI
notes: Transiently expressed in Nicotiana benthamiana leaves; also called PPD1 with the TIFY motif deleted

Legend:
[1] = target: T1, BiFC nYFP-NINJA (Arabidopsis NINJA with …); experiment: BiFC in Nicotiana benthamiana leaves
Experimental: (§1) Transient BiFC experiments were performed using combinations of pDESTnYFP and pDESTcYFP plasmids, with or without plasmids for the expression of NINJA (pRSh1-NINJA) or TPL (pRSh1-TPL) and Agrobacterium-infiltration of Nicotiana benthamiana leaves. For infiltration Agrobacterium tumefaciens GV3101 strains containing the binary vectors were re-suspended from plates and prepared for transformation as described for the LUC assay. All YFP and expression strains were mixed in ratios of 1:1 (vol/vol) with the addition of strain P19 at 1/10th volume. Five leaf discs were sampled from each infiltrated leaf after 40 h. Two hours prior to sampling for microscopic fluorescence observations leaves were infiltrated with a 1 μg/ml DAPI solution to stain nuclei. YFP fluorescence and DAPI staining was detected using an Olympus Fluoview FV10i confocal laser scanning microscope. Each experiment was repeated twice.

[2] = target: T2, BiFC nYFP-BZR1 (Arabidopsis BZR1 with …); experiment: BiFC in immature Nicotiana benthamiana leaves; the filing reads the interaction as indirect, through NINJA and TPL
Experimental: as §1
(§2) To determine the molecular function of the PPD proteins the interactions of PPD1, NINJA, TPL, and BZR1 were studied in planta. […] The NINJA-binding TIFY motif in PPD1 was essential for this interaction. Moreover, no interaction was observed when nYFP-PPD1 and cYFP-BZR1 were co-expressed in fully expanded leaves (FIG. 8C). […]

[3] = target: T2, BiFC nYFP-BZR1 (Arabidopsis BZR1 with …); experiment: BiFC in fully expanded Nicotiana benthamiana leaves with NINJA and TPL co-expressed
Experimental: as §1, §2

| Binder | binding result [1] | binding result [2] | binding result [3] |
| --- | --- | --- | --- |
| B1 | binds | binds |  |
| B2 |  |  | no binding |
